Reference: publication PMC4427999
These are yes or no findings as the source states them, for the method shown. Binding seen in cells or lysates may run through a third protein. Some entries that bind do so weakly or less than the wild type.

Protein sequences, listed by entry. Tags and fused reporters are not part of them. Residues count along the entry.
UniProt P05106, residues 27-788: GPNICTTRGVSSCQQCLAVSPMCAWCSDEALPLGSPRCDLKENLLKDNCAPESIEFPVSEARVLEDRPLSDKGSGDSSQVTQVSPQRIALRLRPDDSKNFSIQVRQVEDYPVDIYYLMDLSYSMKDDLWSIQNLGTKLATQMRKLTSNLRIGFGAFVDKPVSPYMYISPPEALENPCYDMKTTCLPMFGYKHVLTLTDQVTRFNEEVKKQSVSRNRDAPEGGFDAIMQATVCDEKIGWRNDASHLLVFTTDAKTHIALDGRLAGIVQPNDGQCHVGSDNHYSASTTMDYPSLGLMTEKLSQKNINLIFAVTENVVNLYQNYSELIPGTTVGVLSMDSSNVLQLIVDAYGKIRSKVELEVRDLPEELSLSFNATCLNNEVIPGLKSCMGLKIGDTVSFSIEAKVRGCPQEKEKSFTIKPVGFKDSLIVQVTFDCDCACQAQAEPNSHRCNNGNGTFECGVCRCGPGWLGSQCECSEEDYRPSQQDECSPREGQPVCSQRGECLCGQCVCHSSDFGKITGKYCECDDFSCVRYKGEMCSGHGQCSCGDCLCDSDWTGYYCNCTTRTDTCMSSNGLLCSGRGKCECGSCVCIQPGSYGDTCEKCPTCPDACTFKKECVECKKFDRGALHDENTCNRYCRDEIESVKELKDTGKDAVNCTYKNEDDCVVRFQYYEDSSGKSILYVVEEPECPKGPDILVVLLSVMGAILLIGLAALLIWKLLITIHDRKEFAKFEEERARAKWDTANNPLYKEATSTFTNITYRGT
UniProt Q05397: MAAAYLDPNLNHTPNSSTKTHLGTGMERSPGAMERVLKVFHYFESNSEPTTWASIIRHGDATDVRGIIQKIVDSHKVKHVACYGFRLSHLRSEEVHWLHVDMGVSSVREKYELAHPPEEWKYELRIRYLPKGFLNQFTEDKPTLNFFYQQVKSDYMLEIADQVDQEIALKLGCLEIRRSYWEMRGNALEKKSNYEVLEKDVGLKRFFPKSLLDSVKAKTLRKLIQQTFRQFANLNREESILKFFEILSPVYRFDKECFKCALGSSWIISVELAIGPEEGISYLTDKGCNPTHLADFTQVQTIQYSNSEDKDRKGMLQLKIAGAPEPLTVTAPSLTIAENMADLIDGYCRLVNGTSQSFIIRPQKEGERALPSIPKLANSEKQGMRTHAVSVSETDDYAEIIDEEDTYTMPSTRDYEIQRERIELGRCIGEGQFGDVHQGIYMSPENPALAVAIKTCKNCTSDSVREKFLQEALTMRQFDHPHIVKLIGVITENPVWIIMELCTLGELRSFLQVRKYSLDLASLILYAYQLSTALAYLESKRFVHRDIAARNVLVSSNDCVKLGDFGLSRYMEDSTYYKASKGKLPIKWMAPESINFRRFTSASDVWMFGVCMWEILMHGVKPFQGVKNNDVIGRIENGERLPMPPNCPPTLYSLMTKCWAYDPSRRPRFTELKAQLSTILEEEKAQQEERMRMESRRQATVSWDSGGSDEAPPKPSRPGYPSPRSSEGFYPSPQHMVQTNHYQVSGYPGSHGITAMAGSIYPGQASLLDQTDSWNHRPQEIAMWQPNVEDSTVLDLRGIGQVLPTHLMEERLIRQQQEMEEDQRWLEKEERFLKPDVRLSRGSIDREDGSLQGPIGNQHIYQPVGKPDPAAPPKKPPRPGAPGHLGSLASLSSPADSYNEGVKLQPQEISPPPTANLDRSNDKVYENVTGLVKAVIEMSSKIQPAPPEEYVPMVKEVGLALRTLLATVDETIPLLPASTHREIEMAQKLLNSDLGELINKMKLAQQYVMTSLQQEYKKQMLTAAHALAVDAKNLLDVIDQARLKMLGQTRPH
UniProt Q9Y490: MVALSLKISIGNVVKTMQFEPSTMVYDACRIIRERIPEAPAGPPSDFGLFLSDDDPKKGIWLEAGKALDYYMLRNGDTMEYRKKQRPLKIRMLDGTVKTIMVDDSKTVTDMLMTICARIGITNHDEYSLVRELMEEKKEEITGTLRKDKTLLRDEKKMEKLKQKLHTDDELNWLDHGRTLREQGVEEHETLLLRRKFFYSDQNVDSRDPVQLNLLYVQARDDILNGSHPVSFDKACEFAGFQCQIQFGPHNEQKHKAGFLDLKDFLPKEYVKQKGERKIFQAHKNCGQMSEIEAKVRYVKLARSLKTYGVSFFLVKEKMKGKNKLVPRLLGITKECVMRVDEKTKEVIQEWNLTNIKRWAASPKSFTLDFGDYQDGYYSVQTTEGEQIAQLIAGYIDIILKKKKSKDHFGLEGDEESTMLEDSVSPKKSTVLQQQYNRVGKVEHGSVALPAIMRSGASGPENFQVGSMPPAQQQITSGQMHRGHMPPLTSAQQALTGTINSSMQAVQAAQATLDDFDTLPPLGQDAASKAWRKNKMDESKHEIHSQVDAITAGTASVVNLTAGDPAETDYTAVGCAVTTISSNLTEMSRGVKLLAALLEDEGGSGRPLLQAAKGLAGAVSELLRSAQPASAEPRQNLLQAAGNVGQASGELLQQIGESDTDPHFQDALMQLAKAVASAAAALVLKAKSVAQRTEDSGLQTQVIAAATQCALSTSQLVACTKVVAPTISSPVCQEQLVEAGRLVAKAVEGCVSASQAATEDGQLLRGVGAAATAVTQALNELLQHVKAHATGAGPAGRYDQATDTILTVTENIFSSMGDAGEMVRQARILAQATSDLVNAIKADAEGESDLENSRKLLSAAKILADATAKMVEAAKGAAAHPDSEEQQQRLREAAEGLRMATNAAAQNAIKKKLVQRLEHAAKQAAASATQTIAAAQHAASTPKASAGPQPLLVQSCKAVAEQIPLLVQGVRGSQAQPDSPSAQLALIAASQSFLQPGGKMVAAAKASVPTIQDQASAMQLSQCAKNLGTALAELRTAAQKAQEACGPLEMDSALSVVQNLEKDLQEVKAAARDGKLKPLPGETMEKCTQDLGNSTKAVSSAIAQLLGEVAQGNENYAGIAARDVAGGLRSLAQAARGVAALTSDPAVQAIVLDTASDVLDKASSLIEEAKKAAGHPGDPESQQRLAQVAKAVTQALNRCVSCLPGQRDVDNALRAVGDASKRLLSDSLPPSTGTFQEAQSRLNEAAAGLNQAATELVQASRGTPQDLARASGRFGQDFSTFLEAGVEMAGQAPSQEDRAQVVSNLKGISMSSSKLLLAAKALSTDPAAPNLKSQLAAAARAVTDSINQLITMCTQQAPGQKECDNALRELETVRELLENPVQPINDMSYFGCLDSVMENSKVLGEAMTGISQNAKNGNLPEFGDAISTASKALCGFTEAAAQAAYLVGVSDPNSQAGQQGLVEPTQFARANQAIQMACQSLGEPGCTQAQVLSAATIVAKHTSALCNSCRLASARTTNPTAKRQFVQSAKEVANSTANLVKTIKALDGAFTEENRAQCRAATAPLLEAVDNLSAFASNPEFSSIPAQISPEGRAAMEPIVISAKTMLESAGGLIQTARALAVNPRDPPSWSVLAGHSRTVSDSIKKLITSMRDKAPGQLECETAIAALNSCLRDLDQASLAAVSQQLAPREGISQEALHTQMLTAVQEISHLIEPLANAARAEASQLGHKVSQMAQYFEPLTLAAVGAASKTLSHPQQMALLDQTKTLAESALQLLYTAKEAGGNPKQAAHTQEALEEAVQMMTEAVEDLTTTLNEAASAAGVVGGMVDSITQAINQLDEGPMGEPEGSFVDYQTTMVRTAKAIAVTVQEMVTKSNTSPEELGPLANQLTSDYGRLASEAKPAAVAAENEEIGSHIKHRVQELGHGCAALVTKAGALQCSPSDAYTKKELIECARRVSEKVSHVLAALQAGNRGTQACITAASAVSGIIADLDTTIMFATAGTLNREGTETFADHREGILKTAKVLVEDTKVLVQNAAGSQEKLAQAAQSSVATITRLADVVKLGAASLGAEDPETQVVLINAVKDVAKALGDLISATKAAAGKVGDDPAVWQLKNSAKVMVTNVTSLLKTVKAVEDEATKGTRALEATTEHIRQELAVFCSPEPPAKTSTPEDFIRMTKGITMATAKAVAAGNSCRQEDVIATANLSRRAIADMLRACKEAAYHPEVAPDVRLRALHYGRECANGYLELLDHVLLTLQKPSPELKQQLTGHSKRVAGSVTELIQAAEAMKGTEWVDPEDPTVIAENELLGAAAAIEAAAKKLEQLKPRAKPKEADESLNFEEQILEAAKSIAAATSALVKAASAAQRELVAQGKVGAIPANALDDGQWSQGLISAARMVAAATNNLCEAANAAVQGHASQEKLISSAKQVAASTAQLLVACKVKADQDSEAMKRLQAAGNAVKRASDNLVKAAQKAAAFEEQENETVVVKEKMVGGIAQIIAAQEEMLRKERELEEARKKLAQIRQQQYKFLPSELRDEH

Target: integrin β3 (human (endogenous in DU-145)) (UniProt P05106)
Experiment: co-IP; immunoprecipitation with an anti-integrin β3 antibody (Pierce Classic IP Kit) from RIPA lysates (100 μg protein) of DU-145 cells, NC RNA and miR-124 mimic transfectants; overnight at 4°C, Protein G Plus/Protein A agarose 1 h at 4°C; western blot for talin 1, FAK and Src

| Substance | binding |
| --- | --- |
| focal adhesion kinase (from UniProt Q05397 1-1052) (enzyme) | binds |
| talin 1 (from UniProt Q9Y490 1-2541) | binds |
